Some results were stated once for a whole list of compounds, not compound by compound.
Test system: Beagle dogs
Assay: Dog study: arterial blood gases, ventilation and acid-base status in normoxia and hypoxia
Assay type: in vivo
Conditions: po 5 mg/kg 12 and 1 hr before
Source text: The dogs were kept under highly standardized conditions and received a standardized diet five days before the experiments. […] To permit spontaneous breathing through a low resistance circuit, a face mask was attached, which enclosed the dog's snout in a leak proof fashion. This custom made mask is equipped with a 2.5 cm ID connector to connect it to a ventilator set to CPAP mode (3 4 cmH20) (Servo900C; Siemens-Elema, Erlangen/Germany).
Six dogs were studied in five different protocols in randomized order:
5) Ethoxzolamide (Sigma-Aldrich, Steinheim/Germany) intravenously: Bolus ethoxzolamide (1 mg/kg), followed by a continuous infusion of 1 mg·kg^−1·h^−1.
The hemodynamic measurements (arterial blood pressure, heart rate, central venous pressure, pulmonary artery pressure, pulmonary capillary wedge pressure), minute ventilation, renal function data, time points for blood samples for blood gases, actual bicarbonate, base excess, plasma electrolytes and hormones, measurements of plasma and urinary values were according to former studies.
Values are given as means±SEM (n=6). For intra-group comparisons a general linear model of analysis of variance (GLM-ANOVA) for repeated measures was applied (NCSS97/PASS 2000, Saugus/MA, USA). Post-hoc testing of means was performed with Student's t-test. Level of significance for error of first order was adjusted according to Holm's procedure. […]

CC(=O)Nc1nnc(S(N)(=O)=O)s1 [AZ, acetazolamide]
base excess lower than in controls: −4 to −5 mmol/l

Reference: patent US8614236B2 (University of Washington, priority 2006, dated 2013)
